# Library screening results

From ChEMBL document CHEMBL3988442, “University of Dundee, Small-Polar-MMV Screening Library” (2021).

Each number is a percent effect as filed. How 0% and 100% were set is not recorded. Most values in the screen are low, and negative values occur. Compounds were drawn at random from those tested, without regard to their results. A dash means the value is not listed here; it may have been measured.

A: 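Assay on Mycobacterium tuberculosis, filed only as a heat shock assay from Cornell; the read-out is not stated. The concentration is filed as 10 mM, unlikely as a test dose, so the dose is not known. The record gives no direction; compounds that gave an IC50 in retests scored well above the rest, so higher reads as stronger inhibition. Size under these conditions: about 69,000 compounds, about 930 of them at 50% or above in at least one test.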
B: 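Whole-cell assay for inhibitors of Mycobacterium tuberculosis growth, labelled Cornell in the record; the read-out is not stated. The concentration is filed as 10 mM, unlikely as a test dose, so the dose is not known. The record gives no direction; compounds strong in two other growth screens of this library score well above the rest, so higher reads as stronger inhibition. Size under these conditions: about 53,000 compounds, about 900 of them at 50% or above in at least one test.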

compound	A	B
CNCC(=O)N1CCCCC1c1nccc(C)n1 (configuration not stated)	-37.09	-41.69
Cc1cc(C(=O)N2CCc3nnc(N)cc3C2)c(C)n1C1CC1	-9.586	-
CC1CN(C(=O)Nc2cc(C(F)(F)F)c[nH]c2=O)CC(C)(C)O1 (configuration not stated)	-1.186	13.29
COC(=O)[C@@H]1Cc2c[nH]c3cccc(c23)[C@H](CC(C)C)N1	10.18	105.3
NC(=O)c1nc(-c2cccc(Cl)c2)oc1N	-5.827	-14.78
[H][C@@]12C[C@@H](c3nnc(C)[nH]3)O[C@]1([H])CN(C(=O)C(C)(C)CC)C2	13	-5.131
Clc1cccc(-c2noc(CCN3CCN(c4ccncc4)CC3)n2)c1	-13.2	30.65
COc1ccccc1C1(CNC(=O)NCc2noc(C)n2)CC1	-6.122	17.42
COC1CCN(CCNC(=O)NCC(C)c2cccc(C)c2)CC1 (configuration not stated)	-0.2813	2.148
O=C(O)C1(Cc2cccc(-c3ccc(F)cc3)c2)CCOCC1	-6.789	-7.78
COc1ccc(CNC(Cn2cncn2)c2ccccc2)cc1C (configuration not stated)	7.595	28.09
Cc1nn(C)c(C)c1C1COCCN1C(=O)c1ccccc1 (configuration not stated)	-3.434	-18.73
CCC(C)(C)NC(=O)CN(Cc1cccc(O)c1)C1CCC(O)CC1 (configuration not stated)	-5.268	6.915
CC(C)c1n[nH]c(C2CN(C(=O)c3cc(C4CC4)[nH]n3)CCO2)n1 (configuration not stated)	4.088	-15.85
Cn1c(C(N)=O)cc2c1CN(C(=O)C1CCCN(C3CCCC3)C1)CC2 (configuration not stated)	9.132	-11.61
O=C1CCN(C(=O)CCc2ccc(Cl)cc2Cl)CCN1	-1.186	15.92
CCc1nc(CN2CCCN(C(=O)c3occc3C)CC2)cs1	20.29	16.73
COc1cccc2c1OCC(CNC(=O)CN(C)C1CCCC1)C2 (configuration not stated)	-2.556	18.22
O=C(NC1CC1)C1CNCCN1C(=O)COc1ccc2c(c1)OCO2 (configuration not stated)	10.97	3.16
CC(=O)N1CCN(Cc2ccco2)CC2(CC(=O)N(C)C2)C1.O=C(O)C(F)(F)F (configuration not stated)	-18.17	-17.92
Fc1cc(CCNc2ccc3nccn3n2)c2c(c1)COCO2	2.654	-
NC1(C(=O)NCC2CCCN(Cc3cccc4nonc34)C2)CCC1 (configuration not stated)	-15.52	28.08
Cc1cc(NCCO)nc(-c2ccccc2O)n1	5.939	-3.129
CN(C)Cc1nc2c(o1)CN(C(=O)NCc1cccc(F)c1)C2.O=C(O)C(F)(F)F	15.97	19.41
O=C(Nc1ccc(-c2nnc[nH]2)cc1)C1CCN1Cc1ccccc1 (configuration not stated)	-2.688	-
CCc1nc(CN(C(C)=O)C2CCN(CCc3cnn(C)c3)C2)no1 (configuration not stated)	3.444	-15.96
CC(NC(=O)N1CCc2ccccc2C1)c1nncn1C (configuration not stated)	9.331	-8.403
COc1ccc(OC)c(C(O)CN2CCC(N3CCC(C)CC3)CC2)c1 (configuration not stated)	-2.184	-33.68
CC(C)c1nc(CN(C)C(=O)CNS(=O)(=O)c2cccs2)cs1	9.351	-4.946
CCn1nnnc1-c1cccc(NC(N)=O)c1	-6.526	-
Cl.O=C(NCc1ccc(Cl)cc1)C1=NOC2(CCNC2)C1 (configuration not stated)	-31.23	-6.27
[H][C@@]12CCCC[C@]1(O)CCN(Cc1ccc(OCC(N)=O)c(Cl)c1)C2	-11.64	-
CCCS(=O)(=O)N1Cc2nccn2CC(CN(C)C)C1.O=C(O)C(F)(F)F (configuration not stated)	-16.64	8.307
NCCc1nc(N(Cc2nccs2)C2CC2)c2ccccc2n1	-17.4	-24.34
NC(=O)COc1ccc(CN2CCC(O)(CN3CCCCC3)C2)cc1Cl (configuration not stated)	-14.6	-
CN(Cc1n[nH]c2c1CCC2)c1nc(C2CCCC2)nc2c1CNC2	21.19	20.05
O=C(O)c1ccc(S(=O)(=O)Nc2ccccc2F)c(F)c1	-48.78	-5.39
Cc1nc2cc(C(=O)N3C[C@@H](NS(C)(=O)=O)[C@H](C(C)C)C3)ccc2[nH]1	-35.54	11.67
O=C(NCCNc1ncccn1)N1CCc2ccccc2C1	-15.13	2
Cc1nccn1C1CCCN(C(=O)c2ccnc(-n3ccnc3)c2)C1 (configuration not stated)	-23.05	-40.96
CC(C)OC(=O)[C@@H]1CCN(C(=O)c2ccccn2)[C@@H]1c1ccc(F)cc1	21.23	-1.242
CCOC[C@@H]1CCC[C@@]12CN(Cc1nccs1)CCO2	-0.2394	-
CCS(=O)(=O)N1CCc2ccc(NC(=O)Nc3cccc(C)c3)cc21	16.38	35.62
CCCNc1nc(CS(=O)(=O)c2ccccc2)cs1	3.918	-0.8742
C=Cn1cc(CN2CCc3nc(-c4cccnc4)nc(O)c3C2)c(C)n1	-10.94	20.76
COc1ccc(C)cc1CC(=O)NC(CC(=O)O)c1ccc(F)cc1 (configuration not stated)	7.97	-
Cc1ccn(CCC(=O)N2CCCC(Cc3cccnc3)C2)n1 (configuration not stated)	-9.681	-
Cc1nnc2n1CCN(Cc1csc(Cc3ccccc3)n1)C2	9.607	16.31
Cc1csc(N2CCCN(CCC(=O)NC(N)=O)CC2)n1	15.08	-
CC1CN(C)CCN1C(=O)c1ccn(-c2ccccc2Cl)n1 (configuration not stated)	-16.21	-29.02
CCc1cc(N2CCN(C(C)=O)CC2)n2nc(C)c(C)c2n1	-10.87	-4.194
CS(=O)(=O)N1CCOCC12CCN(Cc1ccc(F)cc1)CC2.O=C(O)C(F)(F)F	4.637	10.73
Cc1cc(C)c(S(=O)(=O)Nc2ccccc2CC(F)(F)F)cc1C(=O)O	-20.35	0.01585
CCNC(=O)N[C@H]1C[C@@H](Cc2cc(CN3CCCCC3)on2)C1(C)C	14.76	15.68
C=C(C)COc1ccc(C(CC(=O)OC)c2oc(C)cc(=O)c2O)cc1 (configuration not stated)	19.57	15.73
Cc1ccccc1C(O)c1ccncc1 (configuration not stated)	-1.331	7.805
Cc1ccc(CNC(=O)N2CCc3ccccc3C2CO)s1 (configuration not stated)	1.512	-
CC(NC(=O)c1cccnc1N(C)C)c1ccccc1Cl (configuration not stated)	-20.21	-

For reference, 7 entries once more:

compound	A	B
O=C(O)C1(Cc2cccc(-c3ccc(F)cc3)c2)CCOCC1	-6.789	-7.78
CC(C)c1n[nH]c(C2CN(C(=O)c3cc(C4CC4)[nH]n3)CCO2)n1 (configuration not stated)	4.088	-15.85
CCC(C)(C)NC(=O)CN(Cc1cccc(O)c1)C1CCC(O)CC1 (configuration not stated)	-5.268	6.915
Cc1nn(C)c(C)c1C1COCCN1C(=O)c1ccccc1 (configuration not stated)	-3.434	-18.73
NC1(C(=O)NCC2CCCN(Cc3cccc4nonc34)C2)CCC1 (configuration not stated)	-15.52	28.08
CC(=O)N1CCN(Cc2ccco2)CC2(CC(=O)N(C)C2)C1.O=C(O)C(F)(F)F (configuration not stated)	-18.17	-17.92
COc1cccc2c1OCC(CNC(=O)CN(C)C1CCCC1)C2 (configuration not stated)	-2.556	18.22